Assay results published in article PMC12040169 (PLOS Biology, 2025).
This is one part of the list.

system: T1, CTL2-GFP (C. trachomatis L2/434/Bu, GFP-expressing); parameters: species or system HeLa; Intracellular C. trachomatis growth in HeLa cells, bulk GFP fluorescence relative to DMSO; conditions: bulk GFP, single well; 28.5 h, 10 µM; inhibitor
T1 construct: L2/434/Bu, GFP-expressing

| Compound | % of control remaining [%] |
| --- | --- |
| CCN1CCN(C(=O)Cc2cn(C)c3ccccc23)CC1 [CBK200254] | 129.771 |
| Cc1cc(C)n(CCNC2CCN(c3ccccc3C)CC2)c(=O)n1 [CBK306848] | 148.173 |
| CC(=O)N1CCN(C(=O)c2cnc(-c3ccc(Cl)cc3)c(-c3ccco3)c2)CC1 [CBK037518] | 110.353 |
| C[S+]([O-])CC(O)(c1ccc(F)cc1)C1CC1 (centres unmarked) [CBK025846] | 105.715 |
| CN(CCN(C)/N=C/c1c2ccccc2cc2ccccc12)/N=C/c1c2ccccc2cc2ccccc12 [CBK262039] | 100 |
| CN(C(=O)CSc1ncccc1C#N)c1ccccc1 [CBK288044] | 166.226 |
| CC(C)Nc1nccnc1OCc1ccsc1 [CBK115646] | 155.098 |
| O=C(C1=C(O)C(=O)N(c2ccc([N+](=O)[O-])cc2)C1c1ccccc1)c1ccccc1 (centres unmarked) [CBK263787] | 125.903 |
| CCCN(C)Cc1ccc(-c2cn(CC(=O)NCc3ccc4c(c3)OC(F)(F)O4)nn2)cc1 [CBK166361] | 153.679 |
| O=C(NC1CCN(CC2(c3ccccc3)CC2)CC1)C1CCC1 [CBK285322] | 146.441 |
| CC(C)C(=O)Nc1cc2cccnc2c(-c2ccccc2)n1 [CBK081287] | 108.709 |
| Cc1nccn1CCCC(=O)NCC1(c2ccccc2F)CCCC1 [CBK281370] | 95.0258 |
| c1ccc(-c2ccno2)c(OCc2ccc(-c3nccnc3-c3nnn[nH]3)cc2)c1 [CBK050817] | 147.824 |
| CCC(CC)C(=O)N(C)c1c(C)nc2c(OCC(=O)c3ccc(F)cc3)cccn12 [CBK147239] | 111.231 |
| O[C@@]1(c2ccccn2)CC[C@H]2CN(Cc3ccccc3F)C[C@H]21 [CBK283001] | 114.511 |
| O=C1CN(c2ccccc2)C(=O)N1c1ccccc1 [CBK116496] | 121.864 |
| COc1ccc(NS(=O)(=O)c2ccc(OCC(=O)N3CCN(C)CC3)cc2)cc1Cl [CBK269565] | 143.592 |
| CCOC(=O)c1[nH]c(C)c(C(=O)N/N=C/c2ccc(-c3ccc(Cl)cc3)o2)c1C [CBK262503] | 100 |
| COC(=O)c1ccc(S(=O)(=O)n2ccn(-c3cccc(C(F)(F)F)c3)c2=O)n1C [CBK106594] | 113.054 |
| Cc1cc(OC(F)(F)F)ccc1NS(=O)(=O)c1cnn(-c2ccccc2)c1C [CBK062354] | 70.9071 |
| CN1CCN(C(=O)Cn2cc(C(=O)NC3CCCCC3)ccc2=O)C(c2ccccc2)C1 (centres unmarked) [CBK286102] | 127.054 |
| C[C@H]1CN2C[C@H](O)CC2CN1Cc1cccn1-c1ccc(F)cc1 (some centres unmarked) [CBK285465] | 149.457 |
| C#CCNS(=O)(=O)c1cccc(C(=O)N2CCOC(CC(=O)OC)C2)c1 (centres unmarked) [CBK306138] | 142.26 |
| Cn1ccnc1C(NC(=O)N1CCOCC1)c1ccc(F)c(F)c1 (centres unmarked) [CBK283781] | 146.488 |
| CNCCOCC(O)CSc1ccccc1 (centres unmarked) [CBK262704] | 109.859 |
| CC1CCc2c(C(=O)N(C)CC(=O)NC(C)(C)C)csc2C1 (centres unmarked) [CBK305002] | 123.04 |
| CCN(CC)CCN(C)C1CCN(C)CC1 [CBK261917] | 107.733 |

| Compound | % of control remaining [%] |
| --- | --- |
| CC(=O)C1=C(O)C(=O)N(CCC(=O)O)C1c1ccccc1 (centres unmarked) [CBK286763] | 133.013 |
| COc1cc(CN2CCC(N3CCCCCC3)CC2)ccc1OCc1ccccc1 [CBK264709G] | 100 |
| COc1ccc(C(=O)NC(=N)NCCc2c[nH]c3ccccc23)cc1 [CBK267840] | 107.899 |
| COc1ccc(C(NC(=O)C2CCN(Cc3c[nH]c4ccccc34)CC2)c2ccccn2)cc1 (centres unmarked) [CBK148033] | 104.089 |
| Cc1nc(N2CCOCC2)cc(N2CCN(C(=O)C3CCCC3)CC2)n1 [CBK307602] | 126.859 |
| CS(=O)(=O)N1CCCCCC1c1cc(-c2ccc(F)cc2)no1 (centres unmarked) [CBK284669] | 92.6542 |
| Cc1ccc(CN(C(=O)/C=C/C(=O)O)C(C)(C)C)cc1 [CBK286799] | 128.051 |
| CN(C)CC1CCCN(C(=O)C2C3CCCCC32)C1 (centres unmarked) [CBK282002] | 151.185 |
| O[C@@]1(c2ccccn2)CC[C@H]2CN(Cc3ccc(F)c(F)c3)C[C@H]21 [CBK285456] | 95.0628 |
| CCn1c(CN2CC(n3nc(C)cc3C)C2)nc2c(F)cccc21 [CBK306220] | 114.378 |
| CCOCCCNC(=O)c1cnn2c(C)c(CC)c(C)nc12 [CBK162129] | 140.064 |
| COc1cccc(OCC(=O)NCC(c2ccsc2)N2CCCC2)c1 (centres unmarked) [CBK304630] | 90.7488 |
| c1cnc2c(OCc3nc4ccccc4[nH]3)cccc2c1 [CBK268556] | 91.6229 |
| C[C@@H](Nc1nc(-c2ccccc2)cnc1N)c1ccccc1 [CBK063728] | 101.594 |
| O=C(CN1C(=O)c2ccccc2C1=O)Nc1cccc2ncccc12 [CBK262761] | 100 |
| Cn1c(CN2CCN(C(=O)c3ccco3)CC2)nc2cc([N+](=O)[O-])ccc21 [CBK268473] | 80.2133 |
| CCCNc1cc(C)nc2cc(-c3ccc(OC)c(OC)c3)nn12 [CBK287805] | 137.471 |
| Cc1cc(C(=O)NC(C)Cn2nc(C)cc2C)c2cccc(C)c2n1 (centres unmarked) [CBK281635] | 120.929 |
| Cc1ccc(C(=O)NCc2ccco2)c(NCc2cccnc2)n1 [CBK076383] | 192.119 |
| OC1(CN2CCCC2)COCCN(c2nnc(-c3ccccc3)s2)C1 (centres unmarked) [CBK306558] | 129.358 |
| CC(C)c1ccc(N2C(=O)[C@@H]3C[C@@H](NC(=O)c4cccs4)CCN3C2=O)cc1 [CBK289541] | 113.719 |
| FC(F)(F)c1cccc(-c2nccnc2NCc2cccs2)c1 [CBK037298] | 116.956 |
| Cc1nn(C)cc1-c1c(C#N)c(N)nc2c1CN(Cc1ccco1)CC2 [CBK306722] | 141.488 |
| CCOc1ccc(N2C(=O)CC(NC3CCN(c4ncccn4)CC3)C2=O)cc1 (centres unmarked) [CBK269972] | 103.46 |
| COCCNc1nc(-c2ccccc2CO)cnc1N [CBK063575] | 128.214 |
| CC12CN3CC(C)(CN(C1)C3c1ccc(Br)cc1)C2=O (centres unmarked) [CBK261452] | 125.491 |
| Cn1cnnc1SCCNC(=O)N1CCc2sccc2C1 [CBK307385] | 143.819 |

| Compound | % of control remaining [%] |
| --- | --- |
| CC(C)COC(=O)CCNc1n[nH]c(=O)[nH]c1=O [CBK293920] | 127.394 |
| Cc1c(C(=O)O)sc(S(=O)(=O)N2CCN(C(=O)CC(C)c3ccccc3)CC2)c1C(=O)O (centres unmarked) [CBK297143] | 140.518 |
| Cc1n[nH]c(C)c1CCC(=O)N/N=C/c1cccc(O)c1 [CBK262910] | 138.231 |
| CC(C)c1csc(C2CCN(C(=O)CCc3ccsc3)CC2)n1 [CBK305327] | 107.664 |
| O=C(O)CCc1nc2nc(-c3ccco3)cc(C(F)(F)F)n2n1 [CBK286889] | 136.199 |
| O=C(Nc1cccc(-c2nnco2)c1)C1CCCCC1 [CBK296662] | 155.943 |
| COc1cccc(NC(=O)C2CCCCC2C(=O)O)c1 (centres unmarked) [CBK262410] | 108.566 |
| CC(C)NC(=O)CN1CCC(N(C)Cc2cccc(C(F)(F)F)c2)CC1 [CBK305429] | 104.162 |
| C/C(=N\NC(=N)N)C(F)(F)F [CBK023019G] | 145.149 |
| COCC(C)NC(=O)Cn1c(-c2ccc(F)cc2)cc2cccnc21 (centres unmarked) [CBK284863] | 119.339 |
| COC(=O)c1c(NC(=S)Nc2cnccn2)sc2c1CCC(C)C2 (centres unmarked) [CBK266893] | 140.478 |
| CC(C)C(=O)N1CCC(Cn2nc(-c3ccccc3)ccc2=O)CC1 [CBK284114] | 119.785 |
| CN(C)c1ccc(/C=C/c2noc(-c3ccccc3O)n2)cc1 [CBK268438] | 141.422 |
| COc1ccc(OC)c(N/C=C(/C#N)c2nc(-c3cc4c(ccc5ccccc54)oc3=O)cs2)c1 [CBK262991] | 110.279 |
| Cn1nc(-c2ccccc2)cc1[C@H]1CN2CC[C@H]1C[C@@H]2CNC(=O)N1CCOCC1 [CBK289094] | 102.62 |
| COc1ccc(CCCC(=O)Nc2cc3cccnc3c(Br)n2)cc1 [CBK119486] | 104.359 |
| CCn1cc(-c2cncn2CCCn2ccnc2C(C)C)cn1 [CBK282244] | 122.921 |
| NC(=O)c1nnc2ccc(Cl)cc2c1N [CBK026161] | 142.579 |
| COCCn1c(=O)n(Cc2ccccc2)c2cccnc21 [CBK283964] | 121.801 |
| O=C1c2ccccc2C(=O)N1CSc1nnc(SCN2C(=O)c3ccccc3C2=O)s1 [CBK263694] | 117.678 |
| O=C(c1cccc(-c2cncc(-c3ccc(O)cc3)n2)c1)N1CCOCC1 [CBK123796] | 100 |
| O=C(O)COc1ccc(/C=N/n2cnnc2)cc1Cl [CBK263902] | 113.736 |
| OC1(c2ccccc2)CCN(Cc2ccccc2-n2cccn2)C1 (centres unmarked) [CBK282795] | 124.984 |
| Cc1cccc(-c2nc3ccc(NC(=O)CCC(=O)O)cc3o2)c1 [CBK269773] | 112.443 |
| Cc1ccc(CN(C)CC(=O)Nc2cc(C(F)(F)F)ccc2Cl)o1 [CBK306085] | 116.337 |
| CC(=O)Nc1ccc(-c2ccc(C(=O)N3CCN(C4CCN(C)CC4)CC3)cn2)cc1 [CBK158824] | 118.378 |

A different layout for some results above:
Compound | % of control remaining [%]
Cc1c(C(=O)O)sc(S(=O)(=O)N2CCN(C(=O)CC(C)c3ccccc3)CC2)c1C(=O)O (centres unmarked) [CBK297143] | 140.518
Cc1n[nH]c(C)c1CCC(=O)N/N=C/c1cccc(O)c1 [CBK262910] | 138.231
CC(C)c1csc(C2CCN(C(=O)CCc3ccsc3)CC2)n1 [CBK305327] | 107.664
O=C(O)CCc1nc2nc(-c3ccco3)cc(C(F)(F)F)n2n1 [CBK286889] | 136.199
O=C(Nc1cccc(-c2nnco2)c1)C1CCCCC1 [CBK296662] | 155.943
COc1cccc(NC(=O)C2CCCCC2C(=O)O)c1 (centres unmarked) [CBK262410] | 108.566
CC(C)NC(=O)CN1CCC(N(C)Cc2cccc(C(F)(F)F)c2)CC1 [CBK305429] | 104.162
C/C(=N\NC(=N)N)C(F)(F)F [CBK023019G] | 145.149
COCC(C)NC(=O)Cn1c(-c2ccc(F)cc2)cc2cccnc21 (centres unmarked) [CBK284863] | 119.339
COC(=O)c1c(NC(=S)Nc2cnccn2)sc2c1CCC(C)C2 (centres unmarked) [CBK266893] | 140.478
CC(C)C(=O)N1CCC(Cn2nc(-c3ccccc3)ccc2=O)CC1 [CBK284114] | 119.785
CN(C)c1ccc(/C=C/c2noc(-c3ccccc3O)n2)cc1 [CBK268438] | 141.422
COc1ccc(OC)c(N/C=C(/C#N)c2nc(-c3cc4c(ccc5ccccc54)oc3=O)cs2)c1 [CBK262991] | 110.279
Cn1nc(-c2ccccc2)cc1[C@H]1CN2CC[C@H]1C[C@@H]2CNC(=O)N1CCOCC1 [CBK289094] | 102.62
COc1ccc(CCCC(=O)Nc2cc3cccnc3c(Br)n2)cc1 [CBK119486] | 104.359
CCn1cc(-c2cncn2CCCn2ccnc2C(C)C)cn1 [CBK282244] | 122.921
NC(=O)c1nnc2ccc(Cl)cc2c1N [CBK026161] | 142.579
